# Source: US20230406915A1 (HJB HANGZHOU, published 2023)
# Amino acid sequences for entries named in this document (tags omitted). A change or cut given only in a name is not applied to a line headed by its entry.
# UniProt Q9UBU2: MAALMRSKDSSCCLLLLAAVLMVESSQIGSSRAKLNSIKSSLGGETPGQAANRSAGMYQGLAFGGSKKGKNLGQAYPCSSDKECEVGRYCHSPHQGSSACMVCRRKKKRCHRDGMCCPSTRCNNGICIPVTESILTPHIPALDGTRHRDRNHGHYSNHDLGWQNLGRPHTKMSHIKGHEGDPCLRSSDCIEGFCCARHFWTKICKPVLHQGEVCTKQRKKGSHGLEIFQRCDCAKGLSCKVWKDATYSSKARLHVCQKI
# No constants are given. Whether binding was seen depends on the method and setting. Binding calls can cover weak binding; strength is not graded here.
# Target: human DKK2 protein (R & D system, catalog number: 6628-DK-010) (human) (UniProt Q9UBU2)
# Assay: ELISA with chemiluminescent readout at 470 nm on plate-coated human DKK2 (1 ng/well), detection with goat anti-human IgG-Fc HRP
row,binding,Binder
1,binds,"M-747 (antibody, human IgG1, kappa, V domains shown, Humanized anti-DKK2 parental antibody; also called parental antibody; parental molecule) VH: QVQLVQSGSELKKPGASVKVSCKASGYTFTNYWMNWVRQAPGQGLEWMGMIHPSDSETRLNQKFKDRVTITVDKSTSTAYMELSSLRSEDTAVYYCAREGRLGLRSYAMDYWGQGTLVTVSS VL: DIVMTQSPDSLAVSLGERATINCKSSQSLLNSSNQKNYLAWYQQKPGQPPKLLVYFASTRESGVPDRFSGSGSGTDFTLTISSLQAEDVAVYFCQQHYITPLTFGGGTKVEIKR"
2,binds,"M-751 (antibody, V domains shown, also called candidate antibody) VH: QVQLVQSGAEVKKPGSSVKVSCKASGYTFTNYWMNWVRQAPGQGLEWMGMIHPSDSETRLNQKFQGRVTITVDKSTSTAYMELSSLRSEDTAVYYCAREGRLGLRSYAMDYWGQGTLVTVSS VL: DIQMTQSPSSLSASVGDRVTITCRSSQSLLNSSNQKNYLAWYQQKPGKVPKLLIYFASTRESGVPSRFSGSGSGTDFTLTISSLQPEDVATYFCQQHYITPLTFGGGTKVEIKR"
3,binds,"M-755 (antibody, V domains shown, also called candidate antibody) VH: QVQLVQSGAEVKKPGASVKVSCKASGYTFTNYWMNWVRQAPGQGLEWMGMIHPSDSETRLNQKLQGRVTITVDKSTSTAYMELRSLRSDDTAVYYCAREGRLGLRSYAMDYWGQGTLVTVSS VL: DIQMTQSPSSLSASVGDRVTITCRSSQSLLNSSNQKNYLAWYQQKPGKAPKLLIYFASTRESGVPSRFSGSGSGTDFTLTISSLQPEDFATYFCQQHYITPLTFGGGTKVEIKR"
